From PubChem BioAssay AID504834 (National Center for Advancing Translational Sciences (NCATS), 2011)
About 22,000 (6.9%) of roughly 320,000 compounds were called active. Inconclusive means that the source gave no clear call. Such entries were picked first, then a sample of the others. Calls follow the shape of the dose curve; as a rule, active = well fitted inhibition curve with a large enough effect; inconclusive = small, poorly fitted or top-dose-only effect, or another doubt; inactive = no such curve, though single readings can be large or run the other way. Where the call is inconclusive, the potency comes from a doubtful curve fit.

Assay: Primary qHTS for delayed death inhibitors of the malarial parasite plastid, 96 hour incubation
Conditions: P. falciparum luciferase reporter growth; series mostly up to 28.7 µM
Outline: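 Luminescence readout: decreased luciferase signal marks inhibited growth of reporter-expressing P. falciparum in infected red cells (2% hematocrit, 0.05% parasitemia final), exposed to compound two generations (96 h, 37 C, 5% CO2).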
Potency is read from the fitted curve at half-maximal effect.

Structure (SMILES) | Potency
Cc1ccc(/C=C2\CC(C)CC3=C2NC(=S)NC3c2ccc(C)cc2)cc1 (stereo unspecified) | inconclusive: 18.5 µM [inhibitor, single point]
Cc1ccc2[nH]c(O)c(N=Nc3ccccc3C)c2c1 | inactive
CCc1c(C)sc2nc3c(C(=O)N4CCOCC4)cc(C(=O)c4ccccc4O)cn3c(=O)c12 | inconclusive: 10.4 µM [inhibitor, partial curve]
CCOC(=O)c1c(CN2CCC(C)CC2)oc2ccc(OC)cc12 | inconclusive: 18.5 µM [inhibitor, single point]
COc1ccc(NC(=O)Cc2ccc(C)c(C)c2)cc1Cl | inconclusive: 18.5 µM [inhibitor, partial curve, poor fit]
CCCn1c(SCC(=O)c2cc(C)n(-c3ccc4c(c3)OCO4)c2C)n[nH]c1=O | inconclusive: 18.5 µM [inhibitor, single point]
COc1ccc(/C=N/Nc2cc(C)nc3ccccc23)cc1 | inactive
Cc1ccc(N2CC(C(=O)Nc3cc(C)on3)CC2=O)c(C)c1 (stereo unspecified) | inconclusive: 18.5 µM [inhibitor, single point]
CC(=O)c1sccc1NC(=O)CC(C)(C)CC(=O)O | inactive
O=C(NC(=S)Nc1ccccc1Br)c1ccco1 | inconclusive: 11.7 µM [inhibitor, partial curve]
Cc1ccc(-c2csc3ncnc(Cl)c23)cc1 | active: 2.62 µM
C/C(=N\NC(=O)CCc1ccc(S(=O)(=O)N2CCOCC2)cc1)c1ccccc1Cl | inconclusive: 2.33 µM [inhibitor, partial curve, poor fit]
Cc1ccc(C(=O)NCCN(C)C)c(C)c1 | inactive
CCC(=O)N(Cc1cc2ccccc2[nH]c1=O)c1ccccc1OC | inactive
O=C(Nc1ccc(F)cc1)c1cncs1 | inactive
CN1C2CCC1CC(OC(=O)c1c[nH]c3ccccc13)C2 (stereo unspecified) | inconclusive: 10.4 µM [inhibitor, single point]
CCn1c(CSc2nnc(-c3ccncc3)n2CCOC)nc2cc(C(=O)O)ccc21 | inactive
COC(=O)COc1cccc(NC(=O)c2ccccc2)c1 | inactive
NC(=O)c1cc([N+](=O)[O-])ccc1NCc1ccc(F)cc1 | inconclusive: 14.7 µM [inhibitor, single point]
Cc1nn(Cc2ccccc2Cl)c(C)c1NC(=O)NC12CC3CC(CC(C3)C1)C2 | inconclusive: 8.28 µM [inhibitor, partial curve]
CC(=O)c1c(C(C)=O)c(C)n(NC(=O)c2ccc(Cl)cc2)c1C | inactive
O=C(Nc1nnc(C2CC2)s1)c1cc([N+](=O)[O-])ccc1N1CCCCC1 | inconclusive: 9.28 µM [inhibitor, single point]
O=C(CCc1nc(-c2ccccc2F)no1)Nc1ccc(Oc2ccccc2)cc1 | inconclusive: 5.22 µM [inhibitor, partial curve, poor fit]
Cc1ccc2nc3sc(C(=O)Nc4c(C)[nH]c(=O)[nH]c4=O)c(N)c3cc2c1 | active: 8.28 µM

Structure (SMILES) | Potency
COc1ccc(Cl)cc1NC(=O)NC(C)c1ccncc1 (stereo unspecified) | inconclusive: 18.5 µM [inhibitor, single point]
Cc1cc(SCC(=O)Nc2cccc(S(N)(=O)=O)c2)c(C)cc1Br | inconclusive: 1.04 µM [inhibitor, partial curve, poor fit]
O=C(CSc1nncc2ccccc12)Nc1cccc(O)c1 | inactive
N#Cc1c2n(c(=S)n(-c3ccc(OC(F)F)cc3)c1=O)CCCCC2 | inconclusive: 13.1 µM [inhibitor, single point]
Cc1cc(C)nc(SCC(=O)Nc2ccc(S(=O)(=O)N3CCCCC3)cc2)n1 | inconclusive: 20.8 µM [inhibitor, partial curve, poor fit]
Cc1cccc(-c2nc(CSc3nc4c(c(=O)[nH]3)CCC4)c(C)o2)c1 | inconclusive: 11.7 µM [inhibitor, single point]
CC1=C(C)/C(=N/OC(=O)c2cccc([N+](=O)[O-])c2)C=CC1=O | inconclusive: 14.7 µM [inhibitor, partial curve, poor fit]
O=C(O)Cc1ccc(N=Cc2c(O)ccc3ccccc23)cc1 | inactive
CCOc1ccc(NC(=O)c2ccc(S(=O)(=O)N(C)C)cc2)cc1 | inconclusive: 7.38 µM [inhibitor, partial curve]
Cc1cc2c(cc1S(=O)(=O)NCCc1ccc(Cl)cc1)OCC(=O)N2 | inconclusive: 18.5 µM [inhibitor, single point]
Cc1ccc(CSc2nnc(-c3cccnc3)o2)cc1 | inactive
CCOC(=O)C1=C(O)c2ccccc2C(=O)/C1=C\c1ccc(CC)cc1 | inconclusive: 7.38 µM [inhibitor, partial curve, poor fit]
CCS(=O)CCSc1nc2ccccc2s1 (stereo unspecified) | inactive
CCOc1ncccc1C(=O)Nc1ccc(-c2cn3ccsc3n2)cc1 | inconclusive: 2.08 µM [inhibitor, full curve]
O=C(CC1C(=O)NCCN1Cc1c(F)cccc1Cl)NCCC1=CCCCC1 (stereo unspecified) | inconclusive: 11.7 µM [inhibitor, partial curve, poor fit]
CCN(C(=O)c1cc2c(=O)[nH]c3ccc(C)cc3c2s1)c1cccc(C)c1 | inconclusive: 18.5 µM [inhibitor, single point]
CCOC(=O)c1c(C)[nH]c(N=Nc2cc(C(=O)O)cc(C(=O)O)c2)c1C | inconclusive: 10.4 µM [inhibitor, single point]
CCOc1ccc(N(C(C)C(=O)NN=C2CCCCCCC2)S(C)(=O)=O)cc1 (stereo unspecified) | inactive
Nc1nonc1C(=O)NCCNS(=O)(=O)c1ccc(F)cc1 | active: 2.94 µM
C/C(=N\NC(=O)c1ccn(C)n1)c1ccc(NC(=O)C2CCC2)cc1 | inactive
Cn1c(=O)c2c(nc3n2CC(COc2ccccc2)O3)n(C)c1=O (stereo unspecified) | active: 9.28 µM
CC(C)C(NC(=O)C1CCC(C(C)(C)C)CC1)C(=O)NCCCN1CCCCC1 (stereo unspecified) | active: 13.1 µM
C=C[C@@H]1c2c(F)cccc2N(S(=O)(=O)c2ccc(C)cc2)[C@H](c2ccc(OC(C)=O)cc2)C1(C#N)C#N | active: 2.62 µM
COc1ccc(C(=O)N/C(=C\c2ccccc2)C(=O)NCCCn2ccnc2)cc1 | inconclusive: 11.7 µM [inhibitor, partial curve]

Structure (SMILES) | Potency
N#Cc1c(SCC(=O)N2CCCCC2)nsc1SCC(=O)N1CCCCC1 | inactive
N#CC1=C(N)N=C(SCc2cccc3ccccc23)C(C(N)=O)C12CCCCC2 (stereo unspecified) | active: 11.7 µM
CCCCC(=O)N(CCOC)c1nnc(-c2ccccc2C)s1 | inactive
CC(=O)Nc1ccc(Nc2cc(C)nc3c(-c4ccc(Cl)cc4)cnn23)cc1 | inactive
Cc1ccc(C2C(N)C(=O)N2c2ccc(C)cc2)cc1 (stereo unspecified) | inconclusive: 10.4 µM [inhibitor, partial curve, poor fit]
COc1ccc(N2CCN(CC(=O)c3ccc(O)c(C)c3O)CC2)cc1 | inconclusive: 11.7 µM [inhibitor, single point]
Cc1ccc(NC(=O)CCCOc2ccccc2)cc1S(=O)(=O)N1CCOCC1 | inconclusive: 11.7 µM [inhibitor, single point]
CCN(CC)CCNC(=O)c1ccc(NC(=O)CC(NC(=O)c2ccccc2Cl)c2ccccc2)cc1 (stereo unspecified) | inactive
O=C(COC(=O)Cc1ccc(F)cc1)NC1CCS(=O)(=O)C1 (stereo unspecified) | inactive
Cc1ccc2nc3c(c(C(=O)OCC(=O)N(C)C4CCS(=O)(=O)C4)c2c1)CCCC3 (stereo unspecified) | inconclusive: 18.5 µM [inhibitor, single point]
N#CCCN(C(=O)CN1CCN(S(=O)(=O)c2ccc3c(c2)OCCO3)CC1)c1ccc(F)cc1 | inconclusive: 10.4 µM [inhibitor, partial curve, poor fit]
CCOC(=O)CNC(=S)N1CCn2c(nc3ccccc32)C1 | inconclusive: 4.15 µM [inhibitor, full curve, poor fit]
CN1CCN(C2=Nc3ccccc3Oc3ccc(Cl)cc32)CC1 | inactive
CN(Cc1ccon1)C(=O)CC1C(=O)NCCN1Cc1cccc(Oc2ccccc2)c1 (stereo unspecified) | inconclusive: 18.5 µM [inhibitor, single point]
N#CCCN(C(=O)COC(=O)C1CCN(S(=O)(=O)c2ccc3c(c2)OCCO3)CC1)c1ccccc1 | inconclusive: 16.5 µM [inhibitor, single point]
CCOC(=O)Nc1ccc2c(c1)N(C(=O)CCN(C)C)c1ccccc1CC2 | inactive
Cc1cc(C)c(-c2cc(NC(=O)COC(=O)c3ccc(NC(=O)CC#N)cc3)n(-c3ccccc3)n2)cc1C | inconclusive: 11.7 µM [inhibitor, single point]
CCc1nc(SCC(=O)Nc2ccccc2OC)n[nH]1 | inconclusive: 11.7 µM [inhibitor, single point]
COc1ccc(N2CCN(Cc3nc(-c4ccc(Cl)cc4Cl)no3)CC2)cc1 | inconclusive: 7.38 µM [inhibitor, partial curve]
CCC(Sc1nc(=O)cc(N)n1-c1ccccc1)C(=O)Nc1cc(C)on1 (stereo unspecified) | inactive
COCCCn1c(=O)/c(=C\c2ccc(OC(F)F)c(OC)c2)s/c1=C(/C#N)C(N)=O | inconclusive: 18.5 µM [inhibitor, partial curve, poor fit]
Cc1cc(C(F)F)n2ncc(C(=O)NCc3ccccc3C(F)(F)F)c2n1 | inconclusive: 9.28 µM [inhibitor, single point]
Cc1ccc(OCCNC(=O)c2ccco2)cc1C | inconclusive: 18.5 µM [inhibitor, single point]

Shown as a markdown table: 14 of the compounds above.

| Structure (SMILES) | Potency |
| --- | --- |
| Cc1ccc(NC(=O)CCCOc2ccccc2)cc1S(=O)(=O)N1CCOCC1 | inconclusive: 11.7 µM [inhibitor, single point] |
| CCN(CC)CCNC(=O)c1ccc(NC(=O)CC(NC(=O)c2ccccc2Cl)c2ccccc2)cc1 (stereo unspecified) | inactive |
| O=C(COC(=O)Cc1ccc(F)cc1)NC1CCS(=O)(=O)C1 (stereo unspecified) | inactive |
| Cc1ccc2nc3c(c(C(=O)OCC(=O)N(C)C4CCS(=O)(=O)C4)c2c1)CCCC3 (stereo unspecified) | inconclusive: 18.5 µM [inhibitor, single point] |
| N#CCCN(C(=O)CN1CCN(S(=O)(=O)c2ccc3c(c2)OCCO3)CC1)c1ccc(F)cc1 | inconclusive: 10.4 µM [inhibitor, partial curve, poor fit] |
| CCOC(=O)CNC(=S)N1CCn2c(nc3ccccc32)C1 | inconclusive: 4.15 µM [inhibitor, full curve, poor fit] |
| CN1CCN(C2=Nc3ccccc3Oc3ccc(Cl)cc32)CC1 | inactive |
| CN(Cc1ccon1)C(=O)CC1C(=O)NCCN1Cc1cccc(Oc2ccccc2)c1 (stereo unspecified) | inconclusive: 18.5 µM [inhibitor, single point] |
| N#CCCN(C(=O)COC(=O)C1CCN(S(=O)(=O)c2ccc3c(c2)OCCO3)CC1)c1ccccc1 | inconclusive: 16.5 µM [inhibitor, single point] |
| CCOC(=O)Nc1ccc2c(c1)N(C(=O)CCN(C)C)c1ccccc1CC2 | inactive |
| Cc1cc(C)c(-c2cc(NC(=O)COC(=O)c3ccc(NC(=O)CC#N)cc3)n(-c3ccccc3)n2)cc1C | inconclusive: 11.7 µM [inhibitor, single point] |
| CCc1nc(SCC(=O)Nc2ccccc2OC)n[nH]1 | inconclusive: 11.7 µM [inhibitor, single point] |
| COc1ccc(N2CCN(Cc3nc(-c4ccc(Cl)cc4Cl)no3)CC2)cc1 | inconclusive: 7.38 µM [inhibitor, partial curve] |
| CCC(Sc1nc(=O)cc(N)n1-c1ccccc1)C(=O)Nc1cc(C)on1 (stereo unspecified) | inactive |
